Experimental data published in the supplement of paper PMC4604168 (melanoma cell lines).
Some of the results follow. Many values rest on one well or one pass, so single values are uncertain.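 Imaging used 1,536-well plates; nuclei positive for cleaved PARP by antibody were divided by total DNA-stained nuclei to yield the apoptosis fraction. Doses for screening kept most cells viable, and cell lines differ markedly in resting and induced cleaved-PARP levels.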

system: COLO829; experiment: cleaved PARP positive nuclei fraction relative to DMSO control; melanoma cells; higher = more apoptosis; conditions: library dose: low library concentration; 72 h

Row | SMILES | cleaved PARP positive nuclei fraction
1 | Cc1cc(Nc2cc(N3CCN(C)CC3)nc(Sc3ccc(NC(=O)C4CC4)cc3)n2)n[nH]1 [Tozasertib] + Cc1ccc(NC(=O)c2cccc(N(C)C)c2)cc1NC(=O)c1ccc(O)cc1 [ZM336372] (first compound 0.006 µM, partner dose 2 µM) | 73.5%
2 | CC[C@]1(O)C[C@H]2CN(CCc3c([nH]c4ccccc34)[C@@](C(=O)OC)(c3cc4c(cc3OC)N(C=O)[C@H]3[C@@](O)(C(=O)OC)[C@H](OC(C)=O)[C@]5(CC)C=CCN6CC[C@]43[C@@H]65)C2)C1 [vincristine] + CC1(C)NC(=O)N(c2ccc([N+](=O)[O-])c(C(F)(F)F)c2)C1=O [nilutamide] (first compound 0.0001 µM, partner dose 1 µM) | 171%
3 | N#CC[C@H](C1CCCC1)n1cc(-c2ncnc3[nH]ccc23)cn1 [ruxolitinib] + CO[C@@H]1[C@H](N(C)C(=O)c2ccccc2)C[C@H]2O[C@]1(C)n1c3ccccc3c3c4c(c5c6ccccc6n2c5c31)C(=O)NC4 [Midostaurin] (first compound 1 µM, partner dose 0.08 µM) | 106%
4 | CCCCCCCCCCCCCCCCCCOP(=O)([O-])OC1CC[N+](C)(C)CC1 [Perifosine] + COc1cc2c(Oc3ccc4[nH]c(C)cc4c3F)ncnc2cc1OCCCN1CCCC1 [cediranib] (first compound 0.4 µM, partner dose 0.4 µM) | 67.7%
5 | N#CC[C@H](C1CCCC1)n1cc(-c2ncnc3[nH]ccc23)cn1 [ruxolitinib] + COc1cc2c(Oc3ccc4[nH]c(C)cc4c3F)ncnc2cc1OCCCN1CCCC1 [cediranib] (first compound 1 µM, partner dose 0.4 µM) | 118%
6 | O=C(/C=C/c1cccnc1)NCCCCC1CCN(C(=O)c2ccccc2)CC1 + O=C(O)c1ccc(-c2c[nH]c3ncc(-c4ccccc4)cc23)cc1C1CCCC1 [GSK650394] (first compound 0.01 µM, partner dose 0.16 µM) | 186%
7 | Cc1cc(Nc2cc(N3CCN(C)CC3)nc(Sc3ccc(NC(=O)C4CC4)cc3)n2)n[nH]1 [Tozasertib] + NCC(=O)Nc1ccc(-n2nc(C(F)(F)F)cc2-c2ccc3c(ccc4ccccc43)c2)cc1 [OSU03012] (first compound 0.006 µM, partner dose 1 µM) | 247%
8 | Cc1cn(-c2cc(NC(=O)c3ccc(C)c(Nc4nccc(-c5cccnc5)n4)c3)cc(C(F)(F)F)c2)cn1 [nilotinib] + CO[C@@H]1[C@H](N(C)C(=O)c2ccccc2)C[C@H]2O[C@]1(C)n1c3ccccc3c3c4c(c5c6ccccc6n2c5c31)C(=O)NC4 [Midostaurin] (first compound 0.2 µM, partner dose 0.08 µM) | 101%
9 | Cc1ccc(Nc2nccc(N(C)c3ccc4c(C)n(C)nc4c3)n2)cc1S(N)(=O)=O [Pazopanib] + CN(NC(=O)CC(=O)NN(C)C(=S)c1ccccc1)C(=S)c1ccccc1 [STA4783] (first compound 0.4 µM, partner dose 0.006 µM) | 149%
10 | COc1cc([C@@H]2c3cc4c(cc3[C@@H](O[C@@H]3O[C@@H]5CO[C@@H](C)O[C@H]5[C@H](O)[C@H]3O)[C@H]3COC(=O)[C@H]23)OCO4)cc(OC)c1O [etoposide] + Cc1ccc(NC(=O)c2cccc(N(C)C)c2)cc1NC(=O)c1ccc(O)cc1 [ZM336372] (first compound 0.02 µM, partner dose 2 µM) | 80%
11 | O=C(/C=C/c1cccnc1)NCCCCC1CCN(C(=O)c2ccccc2)CC1 + CN(NC(=O)CC(=O)NN(C)C(=S)c1ccccc1)C(=S)c1ccccc1 [STA4783] (first compound 0.01 µM, partner dose 0.006 µM) | 367%

system: G361; experiment: as above; conditions: library dose: low library concentration; 72 h

Row | SMILES | cleaved PARP positive nuclei fraction
12 | O=c1[nH]nc(Sc2ncc([N+](=O)[O-])s2)n1-c1ccc2c(c1)OCCO2 + COc1cc2c(Oc3ccc4[nH]c(C)cc4c3F)ncnc2cc1OCCCN1CCCC1 [cediranib] (first compound 0.2 µM, partner dose 0.4 µM) | 39.3%
13 | Cc1cc(Nc2cc(N3CCN(C)CC3)nc(Sc3ccc(NC(=O)C4CC4)cc3)n2)n[nH]1 [Tozasertib] + NC(=O)Nc1cc(-c2cccc(F)c2)sc1C(=O)N[C@H]1CCCNC1 [AZD7762] (first compound 0.006 µM, partner dose 0.02 µM) | 128%
14 | Cc1cn(-c2cc(NC(=O)c3ccc(C)c(Nc4nccc(-c5cccnc5)n4)c3)cc(C(F)(F)F)c2)cn1 [nilotinib] + O=C(Nc1cccc(Cl)c1)Nc1ncc(CCNc2ncnc3ccsc23)s1 [SNS314] (first compound 0.2 µM, partner dose 0.0008 µM) | 109%
15 | CCCCCCCCCCCCCCCCCCOP(=O)([O-])OC1CC[N+](C)(C)CC1 [Perifosine] + CC(C)(C)c1cnc(CSc2cnc(NC(=O)C3CCNCC3)s2)o1 [SNS-032] (first compound 0.4 µM, partner dose 0.01 µM) | 309%
16 | O=C(Nc1cc(C(F)(F)F)cc(C(F)(F)F)c1)c1cc(Cl)ccc1O + NCC(=O)Nc1ccc(-n2nc(C(F)(F)F)cc2-c2ccc3c(ccc4ccccc43)c2)cc1 [OSU03012] (first compound 0.016 µM, partner dose 1 µM) | 224%
17 | CCCCCCCCCCCCCCCCCCOP(=O)([O-])OC1CC[N+](C)(C)CC1 [Perifosine] + O=C(O)c1ccc(-c2c[nH]c3ncc(-c4ccccc4)cc23)cc1C1CCCC1 [GSK650394] (first compound 0.4 µM, partner dose 0.16 µM) | 116%
18 | O=C(Nc1cc(C(F)(F)F)cc(C(F)(F)F)c1)c1cc(Cl)ccc1O + C[C@@H]1CCN(C(=O)CC#N)C[C@@H]1N(C)c1ncnc2[nH]ccc12 [CP690550] (first compound 0.016 µM, partner dose 1 µM) | 318%
19 | CC[C@]1(O)C[C@H]2CN(CCc3c([nH]c4ccccc34)[C@@](C(=O)OC)(c3cc4c(cc3OC)N(C=O)[C@H]3[C@@](O)(C(=O)OC)[C@H](OC(C)=O)[C@]5(CC)C=CCN6CC[C@]43[C@@H]65)C2)C1 [vincristine] + CO[C@@H]1[C@H](N(C)C(=O)c2ccccc2)C[C@H]2O[C@]1(C)n1c3ccccc3c3c4c(c5c6ccccc6n2c5c31)C(=O)NC4 [Midostaurin] (first compound 0.0001 µM, partner dose 0.08 µM) | 101%
20 | COc1cc([C@@H]2c3cc4c(cc3[C@@H](O[C@@H]3O[C@@H]5CO[C@@H](C)O[C@H]5[C@H](O)[C@H]3O)[C@H]3COC(=O)[C@H]23)OCO4)cc(OC)c1O [etoposide] + OCCn1cc(-c2cnc3nnn(Cc4ccc5ncccc5c4)c3n2)cn1 [PF04217903] (first compound 0.02 µM, partner dose 1 µM) | 60%
21 | CCCCCCCCCCCCCCCCCCOP(=O)([O-])OC1CC[N+](C)(C)CC1 [Perifosine] + C[C@@H]1CCN(C(=O)CC#N)C[C@@H]1N(C)c1ncnc2[nH]ccc12 [CP690550] (first compound 0.4 µM, partner dose 1 µM) | 101%
22 | O=C(/C=C/c1cccnc1)NCCCCC1CCN(C(=O)c2ccccc2)CC1 + Cc1ccc(NC(=O)c2cccc(N(C)C)c2)cc1NC(=O)c1ccc(O)cc1 [ZM336372] (first compound 0.01 µM, partner dose 2 µM) | 2390%
23 | Cc1ccc(Nc2nccc(N(C)c3ccc4c(C)n(C)nc4c3)n2)cc1S(N)(=O)=O [Pazopanib] + COc1cc(Nc2ncc(F)c(Nc3ccc4c(n3)NC(=O)C(C)(C)O4)n2)cc(OC)c1OC [Tamatinib] (first compound 0.4 µM, partner dose 0.4 µM) | 59.3%
24 | N#CC[C@H](C1CCCC1)n1cc(-c2ncnc3[nH]ccc23)cn1 [ruxolitinib] + COc1cc(Nc2ncc(F)c(Nc3ccc4c(n3)NC(=O)C(C)(C)O4)n2)cc(OC)c1OC [Tamatinib] (first compound 1 µM, partner dose 0.4 µM) | 51.7%
25 | COc1cc([C@@H]2c3cc4c(cc3[C@@H](O[C@@H]3O[C@@H]5CO[C@@H](C)O[C@H]5[C@H](O)[C@H]3O)[C@H]3COC(=O)[C@H]23)OCO4)cc(OC)c1O [etoposide] + CN(NC(=O)CC(=O)NN(C)C(=S)c1ccccc1)C(=S)c1ccccc1 [STA4783] (first compound 0.02 µM, partner dose 0.006 µM) | 177%
26 | O=C(Nc1cc(C(F)(F)F)cc(C(F)(F)F)c1)c1cc(Cl)ccc1O + O=C(Nc1cccc(Cl)c1)Nc1ncc(CCNc2ncnc3ccsc23)s1 [SNS314] (first compound 0.016 µM, partner dose 0.0008 µM) | 93.1%
27 | Cc1cn(-c2cc(NC(=O)c3ccc(C)c(Nc4nccc(-c5cccnc5)n4)c3)cc(C(F)(F)F)c2)cn1 [nilotinib] + NC(=O)Nc1cc(-c2cccc(F)c2)sc1C(=O)N[C@H]1CCCNC1 [AZD7762] (first compound 0.2 µM, partner dose 0.02 µM) | 127%
28 | Cc1cn(-c2cc(NC(=O)c3ccc(C)c(Nc4nccc(-c5cccnc5)n4)c3)cc(C(F)(F)F)c2)cn1 [nilotinib] + O=C(O)c1ccc(-c2c[nH]c3ncc(-c4ccccc4)cc23)cc1C1CCCC1 [GSK650394] (first compound 0.2 µM, partner dose 0.16 µM) | 93.7%

Quoted from the listing.
For cleaved PARP positive nuclei fraction, O=C(/C=C/c1cccnc1)NCCCCC1CCN(C(=O)c2ccccc2)CC1 + Cc1ccc(NC(=O)c2cccc(N(C)C)c2)cc1NC(=O)c1ccc(O)cc1 [ZM336372] (first compound 0.01 µM, partner dose 2 µM) has 2390%
For cleaved PARP positive nuclei fraction, Cc1cn(-c2cc(NC(=O)c3ccc(C)c(Nc4nccc(-c5cccnc5)n4)c3)cc(C(F)(F)F)c2)cn1 [nilotinib] + O=C(O)c1ccc(-c2c[nH]c3ncc(-c4ccccc4)cc23)cc1C1CCCC1 [GSK650394] (first compound 0.2 µM, partner dose 0.16 µM) has 93.7%
